In all, about 33,000 sequences were measured (“E-score (-0.5 to 0.5)”: median about -0.016, highest 2% from about 0.3 on). The list shows a part of the results.
These sequences were tested against T1, Yer184c (UniProt P39961) (assay: PBM E-score (8-mer binding enrichment) (E-score (-0.5 to 0.5)); higher = stronger / more preferred TF binding). Conditions: protein concentration: 100 nM; construct: GST-full length.
T1 sequence: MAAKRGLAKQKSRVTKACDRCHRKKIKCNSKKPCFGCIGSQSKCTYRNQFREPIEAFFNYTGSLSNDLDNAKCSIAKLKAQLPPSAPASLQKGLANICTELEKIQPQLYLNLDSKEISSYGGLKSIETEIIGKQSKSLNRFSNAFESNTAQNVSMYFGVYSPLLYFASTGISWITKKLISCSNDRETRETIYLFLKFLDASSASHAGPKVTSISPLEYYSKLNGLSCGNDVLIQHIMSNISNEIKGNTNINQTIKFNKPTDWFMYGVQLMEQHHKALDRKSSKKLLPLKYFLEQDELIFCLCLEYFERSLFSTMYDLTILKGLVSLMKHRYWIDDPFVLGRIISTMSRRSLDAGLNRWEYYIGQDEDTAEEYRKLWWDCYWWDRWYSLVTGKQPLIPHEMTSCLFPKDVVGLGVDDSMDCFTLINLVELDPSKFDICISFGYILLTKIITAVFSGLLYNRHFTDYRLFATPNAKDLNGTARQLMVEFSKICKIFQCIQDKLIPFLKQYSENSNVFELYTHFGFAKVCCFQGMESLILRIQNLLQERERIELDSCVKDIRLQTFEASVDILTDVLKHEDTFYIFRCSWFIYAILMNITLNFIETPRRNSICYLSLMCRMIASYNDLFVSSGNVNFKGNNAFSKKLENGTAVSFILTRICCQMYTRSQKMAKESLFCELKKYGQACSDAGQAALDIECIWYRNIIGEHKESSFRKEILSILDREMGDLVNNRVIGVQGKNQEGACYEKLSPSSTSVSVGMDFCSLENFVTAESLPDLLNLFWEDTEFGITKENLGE
Description: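 Universal 'all 10-mer' protein binding microarrays (Agilent AMADID 015681) probed with GST-tagged S. cerevisiae TFs (full-length or DBD) made by in vitro transcription/translation (PURExpress), about 100-200 nM. Bound TF was detected with fluorescent anti-GST. Each ungapped 8-mer (which stands for itself and its reverse complement) is scored by the PBM enrichment score (E-score), a modified Wilcoxon-Mann-Whitney statistic from -0.5 to +0.5, computed with the Universal PBM Analysis Suite. Scale: above 0.35 generally sequence-specific binding.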
With CGCGAGTA the “PBM E-score” value was 0.106.
CCACATTA was tested, and the “PBM E-score” value was -0.126.
For ACGGAGGA, the “PBM E-score” value was 0.0483.
With AACGACGG the “PBM E-score” value was 0.169.
With CCTCGGGC the “PBM E-score” value was 0.0197.
For CATTGTGA, the “PBM E-score” value was -0.164.
With GATGACAA the “PBM E-score” value was 0.12.
With AGGCGCTC the “PBM E-score” value was -0.0822.
In the case of GGCCTCAC, the “PBM E-score” value is reported as -0.0604.
AAACTGTG was tested, and the “PBM E-score” value was 0.0324.
In the case of ATCTGCTG, the “PBM E-score” value is reported as -0.027.
In the case of ATATGCGA, the “PBM E-score” value is reported as 0.0078.
In the case of GCGAACAC, the “PBM E-score” value is reported as -0.0736.
TAACTCAA was tested, and the “PBM E-score” value was 0.0996.
For CCTTGCAG, the “PBM E-score” value was -0.2.
With CTCCCCCA the “PBM E-score” value was -0.323.
CCAGGGGC was tested, and the “PBM E-score” value was -0.382.
CTCACCTC was tested, and the “PBM E-score” value was -0.0895.
With TGAATCCA the “PBM E-score” value was 0.117.
CTGAACCA was tested, and the “PBM E-score” value was -0.0303.
With AAAAAGTC the “PBM E-score” value was 0.091.
With AACGACAT the “PBM E-score” value was 0.133.
With AATCGTGC the “PBM E-score” value was 0.206.
For GTCCAAAA, the “PBM E-score” value was 0.162.
For CAACGAGC, the “PBM E-score” value was -0.265.
AAGGCTGC was tested, and the “PBM E-score” value was -0.0369.
In the case of CTTTCAGA, the “PBM E-score” value is reported as 0.0778.
In the case of TGCAGACA, the “PBM E-score” value is reported as 0.0602.
GACCATGA was tested, and the “PBM E-score” value was 0.0105.
In the case of CTAGTCGA, the “PBM E-score” value is reported as -0.0912.
In the case of ACCAGACA, the “PBM E-score” value is reported as 0.00548.
CTATACCA was tested, and the “PBM E-score” value was -0.0586.
CGAGTCAG was tested, and the “PBM E-score” value was 0.0484.
GGACGTAC was tested, and the “PBM E-score” value was -0.17.
In the case of AGTAGTAT, the “PBM E-score” value is reported as 0.116.
AACTTGAT was tested, and the “PBM E-score” value was 0.277.
With CACTCCAG the “PBM E-score” value was -0.079.
With ACAGCAGC the “PBM E-score” value was -0.0621.
CAGCTGAG was tested, and the “PBM E-score” value was -0.174.
With ACTTACCT the “PBM E-score” value was -0.211.
With CGCCAATA the “PBM E-score” value was -0.0727.
In the case of CGACGGCG, the “PBM E-score” value is reported as -0.0312.
AATGCCTA was tested, and the “PBM E-score” value was -0.0279.
In the case of GAAGTAAA, the “PBM E-score” value is reported as 0.119.
In the case of CTAGGCGC, the “PBM E-score” value is reported as -0.179.
In the case of AGTGAGAC, the “PBM E-score” value is reported as -0.134.
For TCATGGGA, the “PBM E-score” value was -0.0738.
For CGATGTTC, the “PBM E-score” value was -0.138.
GGTCCGGA was tested, and the “PBM E-score” value was 0.376.
With CTATACAA the “PBM E-score” value was 0.0425.
For TAATAATA, the “PBM E-score” value was 0.217.
GAACAAGA was tested, and the “PBM E-score” value was 0.169.
GCGGCGCA was tested, and the “PBM E-score” value was 0.0894.
In the case of ATTGGTGC, the “PBM E-score” value is reported as 0.0123.
With GTTCTGAA the “PBM E-score” value was 0.115.
For CGGAGCGC, the “PBM E-score” value was 0.107.
With CAGCACCA the “PBM E-score” value was -0.147.
For TAGGCTCA, the “PBM E-score” value was -0.201.
CAGATCCG was tested, and the “PBM E-score” value was 0.317.
For AAATAGCC, the “PBM E-score” value was -0.0186.
For CACAACTG, the “PBM E-score” value was -0.249.
For GGCAGCAC, the “PBM E-score” value was -0.134.
CTTGGAAC was tested, and the “PBM E-score” value was -0.0214.
CATTATCC was tested, and the “PBM E-score” value was 0.067.
In the case of CACGGTAC, the “PBM E-score” value is reported as -0.0817.
In the case of GCGTTCTA, the “PBM E-score” value is reported as -0.0208.
With AAAGATGG the “PBM E-score” value was -0.131.
In the case of GAAGTATA, the “PBM E-score” value is reported as 0.141.
In the case of GAGCATGA, the “PBM E-score” value is reported as -0.182.
With CCTGCACC the “PBM E-score” value was -0.177.
For CGGTCTAA, the “PBM E-score” value was 0.135.
With CGGGCGTA the “PBM E-score” value was -0.13.
For TCTTGACA, the “PBM E-score” value was 0.101.
For ACTAAGTG, the “PBM E-score” value was 0.035.
In the case of GAGGAGCA, the “PBM E-score” value is reported as -0.0781.
In the case of ATCGTTTC, the “PBM E-score” value is reported as 0.119.
In the case of AAAACTAG, the “PBM E-score” value is reported as 0.0569.
With GCAAAGCC the “PBM E-score” value was -0.298.
With CCAGAACA the “PBM E-score” value was -0.178.
In the case of AACCTGGT, the “PBM E-score” value is reported as -0.0294.
With ACTAGCCT the “PBM E-score” value was -0.0969.
With ACCAGGAA the “PBM E-score” value was 0.00621.
In the case of ACACCCCT, the “PBM E-score” value is reported as -0.165.
With CAATCTGA the “PBM E-score” value was -0.00836.
CAGCTCAC was tested, and the “PBM E-score” value was -0.153.
CTTTGTCC was tested, and the “PBM E-score” value was 0.0996.

Reference: the supplement of paper PMC3334620
